Reference: patent publication US9133259
No constants are given. Whether binding was seen depends on the method and setting. Some entries that bind do so weakly or less than the wild type.

Sequences of proteins named here, by UniProt entry; tags and fusion partners are left off. A change or cut given only in a name is not applied to a line headed by its entry. Residues count along the entry.
UniProt P49747: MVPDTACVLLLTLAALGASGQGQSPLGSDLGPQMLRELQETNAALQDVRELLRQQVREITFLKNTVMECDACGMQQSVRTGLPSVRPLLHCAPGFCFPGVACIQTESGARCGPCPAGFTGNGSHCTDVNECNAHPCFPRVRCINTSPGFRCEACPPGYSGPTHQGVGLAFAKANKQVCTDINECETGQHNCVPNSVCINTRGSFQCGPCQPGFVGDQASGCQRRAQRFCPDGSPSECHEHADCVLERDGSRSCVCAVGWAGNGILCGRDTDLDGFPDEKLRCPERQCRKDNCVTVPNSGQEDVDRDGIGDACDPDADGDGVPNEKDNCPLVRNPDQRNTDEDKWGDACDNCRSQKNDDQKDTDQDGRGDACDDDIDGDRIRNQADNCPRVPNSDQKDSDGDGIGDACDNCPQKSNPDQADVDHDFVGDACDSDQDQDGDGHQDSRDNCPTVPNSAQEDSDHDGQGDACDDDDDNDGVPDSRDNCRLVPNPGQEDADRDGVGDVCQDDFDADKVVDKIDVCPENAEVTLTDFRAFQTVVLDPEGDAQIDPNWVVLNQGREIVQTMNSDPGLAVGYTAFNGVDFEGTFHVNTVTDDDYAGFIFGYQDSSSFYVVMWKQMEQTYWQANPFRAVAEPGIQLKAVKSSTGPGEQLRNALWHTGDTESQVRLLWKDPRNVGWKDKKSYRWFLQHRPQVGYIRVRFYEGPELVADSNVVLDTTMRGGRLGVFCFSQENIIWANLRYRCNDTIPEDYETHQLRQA
UniProt P01137, residues 279-390: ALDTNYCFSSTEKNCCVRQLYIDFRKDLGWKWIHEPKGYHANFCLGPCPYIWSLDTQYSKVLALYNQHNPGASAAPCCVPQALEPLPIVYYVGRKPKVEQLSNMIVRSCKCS
UniProt P18075, residues 293-431: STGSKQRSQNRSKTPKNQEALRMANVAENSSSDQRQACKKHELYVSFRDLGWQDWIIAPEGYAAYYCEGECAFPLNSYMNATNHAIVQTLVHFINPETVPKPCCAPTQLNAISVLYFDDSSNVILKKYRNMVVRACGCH

How the values were obtained:
[1] = target: Recombinant human cartilage oligomeric matrix protein (rhCOMP), full-length, pentamer (human) (UniProt P49747); experiment: ELISA, COMP coated at 1 µg/ml
[2] = target: Recombinant human cartilage oligomeric matrix protein (rhCOMP), full-length, pentamer (human) (UniProt P49747); experiment: solid-phase ELISA, soluble TGF-β1 on immobilized COMP
[3] = target: Recombinant human cartilage oligomeric matrix protein (rhCOMP), full-length, pentamer (human) (UniProt P49747); experiment: negative-stain electron microscopy, gold-labelled TGF-β1
[4] = target: Recombinant human cartilage oligomeric matrix protein (rhCOMP), full-length, pentamer (human) (UniProt P49747); experiment: dual polarization interferometry, COMP(FL) coated on a HisTag chip, pH 7.35, no manganese
[5] = target: Recombinant human cartilage oligomeric matrix protein (rhCOMP), full-length, pentamer (human) (UniProt P49747); experiment: dual polarization interferometry, COMP immobilized on a His-Tag chip, soluble TGF-β1, no manganese
[6] = target: Recombinant human cartilage oligomeric matrix protein (rhCOMP), full-length, pentamer (human) (UniProt P49747); experiment: solid-phase ELISA, soluble BMP-7 on immobilized COMP
[7] = target: T1, Human BMP-2 (R&D Systems) (human) (UniProt P12643); experiment: solid-phase ELISA
T1 sequence (looked up): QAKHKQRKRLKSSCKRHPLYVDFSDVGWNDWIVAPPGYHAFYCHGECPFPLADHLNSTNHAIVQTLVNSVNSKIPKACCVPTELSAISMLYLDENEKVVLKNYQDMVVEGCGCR

[8] = target: Human TGF-β1 (PeproTech, carrier-free) (human) (UniProt P01137); experiment: DPI and solid-phase ELISA
[9] = target: Human TGF-β1 (PeproTech, carrier-free) (human) (UniProt P01137); experiment: solid-phase ELISA at pH 6.5 to 7.5
[10] = target: Human TGF-β1 (PeproTech, carrier-free) (human) (UniProt P01137); experiment: solid-phase ELISA, soluble COMP on coated TGF-β1
[11] = target: Human TGF-β1 (PeproTech, carrier-free) (human) (UniProt P01137); experiment: solid-phase ELISA, soluble COMP on immobilized TGF-β1
[12] = target: T1, Human BMP-2 (R&D Systems) (human); experiment: solid-phase ELISA, soluble COMP on immobilized growth factor
[13] = target: T2, Human BMP-4 (R&D Systems) (human) (UniProt P12644); experiment: as above
T2 sequence (looked up): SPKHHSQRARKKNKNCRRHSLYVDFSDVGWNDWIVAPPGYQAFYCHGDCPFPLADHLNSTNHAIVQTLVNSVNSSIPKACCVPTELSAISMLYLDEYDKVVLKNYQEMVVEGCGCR

[14] = target: Human TGF-β1 (PeproTech, carrier-free) (human) (UniProt P01137); experiment: as above
[15] = target: Recombinant human BMP-7 (gift, Stryker Biotech) (human) (UniProt P18075); experiment: as above
[16] = target: Recombinant human BMP-7 (gift, Stryker Biotech) (human) (UniProt P18075); experiment: ELISA, BMP-7 coated at 1 µg/ml, 16 mM calcium chloride, pH 7.35
[17] = target: Human TGF-β1 (PeproTech, carrier-free) (human) (UniProt P01137); experiment: ELISA, TGF-β1 coated at 1 µg/ml, 16 mM calcium chloride, pH 7.35
[18] = target: T1, Human BMP-2 (R&D Systems) (human); experiment: ELISA, BMP-2 coated at 0.5 µg/ml, 16 mM calcium chloride, pH 7.35
[19] = target: T2, Human BMP-4 (R&D Systems) (human); experiment: ELISA, BMP-4 coated at 0.5 µg/ml, 16 mM calcium chloride, pH 7.35
[20] = target: Human TGF-β1 (PeproTech, carrier-free) (human) (UniProt P01137); experiment: solid-phase ELISA, soluble COMP on immobilized TGF-β1, with Ca, Mg, Mn or EDTA

Measured: binding

Human TGF-β1 (PeproTech, carrier-free) (from UniProt P01137 279-390) (ligand)
binds: [1] | [2] | [3] | [4] | [5]

Recombinant human BMP-7 (gift, Stryker Biotech) (from UniProt P18075 293-431) (ligand)
binds: [1] | [6]

Recombinant human cartilage oligomeric matrix protein (rhCOMP), full-length, pentamer (from UniProt P49747 23-757)
not listed: [1] | [2] | [3] | [4] | [5] | [6]
binds: all other assays above
